PubChem BioAssay AID1259425 – University of Nebraska Medical Center, 2018
The whole screen tested about 14,000 reagents; shown is a random part of them. Not all columns of the deposit are shown. Not stated in the record: the time to read-out.

Aim: 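Compare each knockdown with KSR1 silencing using changes in marker transcripts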 (primary screen)
Cell system: HCT116 human colon cancer cells
Knock-down reagent: siRNA pool against human genes, 50 nM siRNA
Read-out: 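mRNA of six signature genes measured together by branched-DNA assay after 50 nM siRNA pool, blank removed, divided by geometric mean of two housekeeping genes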
Direction: BNIP3L mRNA: higher = more BNIP3L transcript after knockdown; NDRG1 mRNA: higher = more NDRG1 transcript after knockdown

For KIAA0825, what was measured?
BNIP3L mRNA, set 1: 0.134; NDRG1 mRNA, set 1: 0.222

What is on record for CRP (C-reactive protein)?
BNIP3L mRNA, set 1: 0.0562; NDRG1 mRNA, set 1: 0.331

With GET1 (guided entry of tail-anchored proteins factor 1), what does the deposit list?
BNIP3L mRNA, set 1: 0.213; NDRG1 mRNA, set 1: 0.376

What is on record for LRRC17 (leucine rich repeat containing 17)?
BNIP3L mRNA, set 1: 0.143; NDRG1 mRNA, set 1: 0.178

What did the screen give for JCHAIN (joining chain of multimeric IgA and IgM)?
BNIP3L mRNA, set 1: 0.199; NDRG1 mRNA, set 1: 0.399

For POR (cytochrome p450 oxidoreductase), what was measured?
BNIP3L mRNA, set 1: 0.12; NDRG1 mRNA, set 1: 0.357

What is on record for CPLANE1 (ciliogenesis and planar polarity effector complex subunit 1)?
BNIP3L mRNA, set 1: 0.184; NDRG1 mRNA, set 1: 0.232

How did the screen score MDN1 (midasin AAA ATPase 1)?
BNIP3L mRNA, set 1: 0.167; NDRG1 mRNA, set 1: 0.186

For SREBF1 (sterol regulatory element binding transcription factor 1), what was measured?
BNIP3L mRNA, set 1: 0.114; NDRG1 mRNA, set 1: 0.129

Which result is listed for VIL1 (villin 1)?
BNIP3L mRNA, set 1: 0.0962; NDRG1 mRNA, set 1: 0.0788

With PPID (peptidylprolyl isomerase D), how do the results read?
BNIP3L mRNA, set 1: 0.0811; NDRG1 mRNA, set 1: 0.102

For CXCL8 (C-X-C motif chemokine ligand 8), what does the deposit list?
BNIP3L mRNA, set 1: 0.126; NDRG1 mRNA, set 1: 0.0812

With SECISBP2 (SECIS binding protein 2), what was measured?
BNIP3L mRNA, set 1: 0.138; NDRG1 mRNA, set 1: 0.178

What is on record for PLEKHG3 (pleckstrin homology and RhoGEF domain containing G3)?
BNIP3L mRNA, set 1: 0.18; NDRG1 mRNA, set 1: 0.943

For NOP53 (NOP53 ribosome biogenesis factor), how do the results read?
BNIP3L mRNA, set 1: 0.116; NDRG1 mRNA, set 1: 0.359

With CDR1 (cerebellar degeneration related 1), what was measured?
BNIP3L mRNA, set 1: 0.0978; NDRG1 mRNA, set 1: 0.186

What did the screen give for YEATS2 (YEATS domain containing 2)?
BNIP3L mRNA, set 1: 0.192; NDRG1 mRNA, set 1: 0.305

What did the screen give for GTF2I (general transcription factor IIi)?
BNIP3L mRNA, set 1: 0.237; NDRG1 mRNA, set 1: 0.252

What is on record for LGALS1 (galectin 1)?
BNIP3L mRNA, set 1: 0.184; NDRG1 mRNA, set 1: 0.556

How did the screen score VPS72 (vacuolar protein sorting 72 homolog)?
BNIP3L mRNA, set 1: 0.0863; NDRG1 mRNA, set 1: 0.163

How did the screen score SART1?
BNIP3L mRNA, set 1: 0.139; NDRG1 mRNA, set 1: 0.0872

With KIF21B (kinesin family member 21B), how do the results read?
BNIP3L mRNA, set 1: 0.0754; NDRG1 mRNA, set 1: 0.0869

How did the screen score LOC81787 (retired record)?
BNIP3L mRNA, set 1: 0.256; NDRG1 mRNA, set 1: 0.317

For EGFL6 (EGF like domain multiple 6), what does the deposit list?
BNIP3L mRNA, set 1: 0.241; NDRG1 mRNA, set 1: 0.192

With ATG10 (autophagy related 10), how do the results read?
BNIP3L mRNA, set 1: 0.149; NDRG1 mRNA, set 1: 0.585

What did the screen give for BCL7A (BAF chromatin remodeling complex subunit BCL7A)?
BNIP3L mRNA, set 1: 0.172; NDRG1 mRNA, set 1: 0.162

Which result is listed for ONECUT1 (one cut homeobox 1)?
BNIP3L mRNA, set 1: 0.109; NDRG1 mRNA, set 1: 0.595

Which result is listed for HAUS1 (HAUS augmin like complex subunit 1)?
BNIP3L mRNA, set 1: 0.157; NDRG1 mRNA, set 1: 0.777
